Source: PubChem BioAssay AID445 (National Center for Advancing Translational Sciences (NCATS), 2006)
Some of the results follow. Shown are side measurements of this screen, not its main read-out; they come without a call. Most of these compounds were active or inconclusive in the main read-out, so they are no random draw. Words in brackets tell the shape of the fitted curve; partial curves, single points and poor fits give uncertain potencies.

Experiment: IkB Signaling
Conditions: ABC-DLBCL IkBa-CBG/CBR dual luciferase ratio (green luciferase fused to IkBa over red control in OCI-Ly3 lymphoma cells), 4 h; measured here: control luc red channel unless noted
Procedure, shortened: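 Curves were fitted separately to fusion (green), unfused (red) and ratio luminescence, then classed by r2, magnitude and activity. Cells: OCI-Ly3, 4 h compound plus doxycycline at 37C; 10 uM MG-132 defined full response.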
With `CCOc1ccccc1N(C)C(=O)c1cc(S(=O)(=O)NCCc2ccc(Cl)cc2)ccc1F` the AC50 was 12.6 µM [falling, partial curve].
For `CC(C)(C)c1ccc(C(=O)N2CCC(c3noc(-c4ccc(S(=O)(=O)N5CCCC5)cc4)n3)CC2)cc1`, the AC50 was 10 µM [falling, partial curve].
With `CCN(CC)S(=O)(=O)c1ccc(NC(=O)c2ccc3c(=O)n4c(nc3c2)CCCCC4)cc1` the AC50 was 15.8 µM [falling, partial curve].
For `CCc1ccccc1NC(=O)CSc1nc(C)c(C(=O)Nc2ccccc2)c(-c2ccc(Cl)cc2)c1C#N`, the AC50 was 5.01 µM [falling, partial curve].
With `Cc1ccc(C)c2[nH]c(=O)c(CN(Cc3ccco3)C(=O)Nc3ccccc3)cc12` the AC50 was 12.6 µM [falling, partial curve].
With `COc1ccc(-c2nnc(SCC(=O)N3CCc4ccccc4C3)o2)cc1` the AC50 was 39.8 µM [falling, single point].
In the case of `CCN(CC)C(=O)Cn1nc(-c2ccccc2O)nc1SCC(=O)Nc1ccc(OC)cc1`, the AC50 is reported as 25.1 µM [falling, partial curve].
With `COc1ccc(C2=NCC(CSc3nnc(-c4ccc5c(c4)OCO5)o3)S2)cc1` (stereo unspecified) the AC50 was 10 µM [falling, partial curve].
With `Cc1oc2ccc(O)c(CN3CCN(Cc4ccccc4)CC3)c2c1C(=O)Nc1ccccc1` the AC50 was 15.8 µM [falling, partial curve].
With `CCn1c2ccccc2c2nnc(SCc3ccccc3)nc21` the AC50 was 12.6 µM [falling, partial curve].
For `O=C(CSc1nnc(-c2cccs2)n1Cc1ccco1)Nc1ccc2c(c1)OCO2`, the AC50 was 12.6 µM [falling, partial curve].
With `Cc1cc(C)c(S(=O)(=O)NCCc2cc3cc(C)c(C)cc3[nH]c2=O)c(C)c1` the AC50 was 25.1 µM [falling, partial curve, poor fit].
For `O=S(=O)(NCCc1nnc2ccc(SCc3ccc(C(F)(F)F)cc3)nn12)c1ccccc1`, the AC50 was 12.6 µM [falling, partial curve].
For `COC(=O)c1[nH]c2ccc(C)cc2c1NC(=O)CN1CCN(c2ccccc2)CC1`, the AC50 was 12.6 µM [falling, partial curve].
For `CC(C)OCCCNc1sc(S(=O)(=O)c2ccccc2)nc1S(=O)(=O)c1ccc(Cl)cc1`, the AC50 was 15.8 µM [falling, single point].
With `Oc1cc2c(cc1O)[C@H]1c3ccc(O)c(O)c3OC[C@@]1(O)C2` the AC50 was 12.6 µM [falling, partial curve].
For `CCOc1ccccc1NC(=O)CSc1nc2c(oc3ccccc32)c(=O)n1C(C)C`, the AC50 was 39.8 µM [falling, single point].
For `Cc1ccc(Cn2c(=O)n(CC3CCC(C(=O)N4CCC(C)CC4)CC3)c(=O)c3sccc32)cc1` (stereo unspecified), the AC50 was 25.1 µM [falling, partial curve].
With `Cc1cc(O)c2c(-c3ccccc3)cc(=O)oc2c1` the AC50 was 20 µM [falling, partial curve].
With `CCOC(=O)C1(C)C=C(Nc2ccc(Br)cc2)C(=O)N1c1ccccc1` (stereo unspecified) the AC50 was 10 µM [falling, partial curve].
For `CCn1c(=NC(=O)c2ccc3c(c2)OCCO3)sc2c(C)ccc(OC)c21`, the AC50 was 3.16 µM [rising, partial curve].
In the case of `C=C(C)COc1ccc(-c2[nH]ncc2-c2ccccc2OC)c(O)c1`, the AC50 is reported as 25.1 µM [falling, partial curve].
In the case of `Cc1ccc(C)c2[nH]c(=O)c(CN(Cc3ccco3)S(=O)(=O)c3ccc4c(c3)OCCO4)cc12`, the AC50 is reported as 10 µM [falling, partial curve].
With `Cc1nn(C(C)C(=O)NC2CCCCC2)c(=O)c2c1sc1ccccc12` (stereo unspecified) the AC50 was 3.98 µM [falling, full curve].
For `COc1ccc(CC(=O)NC2CC(=O)N(c3cccc(F)c3)C2)cc1` (stereo unspecified), the AC50 was 7.94 µM [falling, single point].
With `Cc1ccc(-c2nnc(Nc3ccc(Br)cc3)c3ccccc23)cc1S(=O)(=O)N1CCN(C)CC1` the AC50 was 1.26 µM [falling, full curve].
With `Cc1ccc(OCC(=O)Nc2ccc(OCc3cc(=O)n4cccc(C)c4n3)cc2)cc1C` the AC50 was 39.8 µM [rising, single point].
For `CCN(C(=O)C(=O)Nc1ccc2nc3n(c(=O)c2c1)CCCCC3)c1ccc(F)cc1`, the AC50 was 15.8 µM [falling, partial curve].
In the case of `Cc1c(C(=O)N(Cc2ccc(N(C)C)cc2)C2CCS(=O)(=O)C2)oc2ccccc12` (stereo unspecified), the AC50 is reported as 0.316 µM [falling, full curve, poor fit].
In the case of `COc1cc(C(=O)CC2(O)C(=O)N(Cc3ccccc3Cl)c3ccccc32)cc(OC)c1OC` (stereo unspecified), the AC50 is reported as 39.8 µM [falling, single point].
With `Cc1ccc2sc(N(Cc3cccnc3)C(=O)CCOc3ccccc3)nc2c1C` the AC50 was 25.1 µM [falling, single point].
With `Cc1ccccc1-c1nc(CS(=O)CC(=O)N2CCN(c3cc(Cl)ccc3C)CC2)c(C)o1` (stereo unspecified) the AC50 was 15.8 µM [falling, partial curve].
For `CCN(CC)CCCNC(=O)Cn1nc(C)n2c(cc3sccc32)c1=O`, the AC50 was 3.16 µM [rising, full curve].
With `COc1ccc(Cn2nnc3c(=O)[nH]c(C4CCCN(C(=O)c5ccc(C)cc5)C4)nc32)cc1` (stereo unspecified) the AC50 was 5.01 µM [rising, partial curve, poor fit].
With `CCOc1ccc(OCC)c(NC(=O)CSc2nc3cccnc3n2C)c1` the AC50 was 25.1 µM [falling, partial curve].
With `COc1ccc(CCNC(=O)Cn2c(=O)n(-c3ccc(C)c(C)c3)c(=O)c3c(C)c(C)sc32)cc1OC` the AC50 was 15.8 µM [falling, single point].
With `O=C(Cn1c2c(c(-c3ccccc3)cc1=O)CCCC2)N1CCCCCC1` the AC50 was 15.8 µM [falling, partial curve].
For `COc1cccc(-c2nn(C)c3sc(C(=O)NCc4ccccn4)cc23)c1`, the AC50 was 3.98 µM [falling, partial curve].
For `COc1ccc(OC)c(C(=O)c2c(N)c(-c3nc(-c4ccc(C)c(C)c4)cs3)c3ccccn23)c1`, the AC50 was 10 µM [falling, partial curve].
For `Cc1cc(C)c2nc(N3CCCC(C(=O)NCc4cccc(Br)c4)C3)sc2c1` (stereo unspecified), the AC50 was 10 µM [falling, partial curve].
In the case of `Fc1ccc(Nc2nc3ccccc3c3nncn23)c(Cl)c1`, the AC50 is reported as 1 µM [rising, full curve].
For `CCN(C(=O)c1cc2cc3ccc(C)cc3nc2o1)c1ccc(OC)cc1`, the AC50 was 25.1 µM [falling, single point].
For `CCOc1ccccc1N1CCN(C(=O)c2cc3c(s2)CCC3)CC1`, the AC50 was 39.8 µM [falling, single point].
In the case of `COc1ccccc1N(CC(=O)NC1CCCC1)C(=O)c1csnn1`, the AC50 is reported as 20 µM [falling, partial curve].
For `Cc1ccc(NC(=O)c2oc3ccc(S(=O)(=O)N4CCCCCC4)cc3c2C)cc1Cl`, the AC50 was 10 µM [falling, partial curve].
With `CCOC(=O)c1ccc(N2CCN(c3ccccc3F)CC2)c(NC(=O)Nc2ccc(Cl)c(Cl)c2)c1` the AC50 was 10 µM [falling, partial curve].
For `CCSC1=C(C#N)C(c2cccc(Br)c2)CC(=O)N1` (stereo unspecified), the AC50 was 25.1 µM [falling, partial curve].
In the case of `CCCN1C(=O)c2[nH]nc(-c3ccccc3O)c2C1c1ccc(OCc2ccccc2)c(OCC)c1` (stereo unspecified), the AC50 is reported as 10 µM [falling, partial curve].
In the case of `Cc1noc(C)c1COc1cccc(C(=O)N2CCN(C/C=C/c3ccccc3)CC2)c1`, the AC50 is reported as 12.6 µM [falling, partial curve].
With `Fc1ccc(-c2nc3nc4ccccc4nc3n2Cc2ccco2)cc1` the AC50 was 3.16 µM [falling, partial curve].
For `COC(=O)C(CC(=O)c1ccc(Br)cc1)n1ccnc1` (stereo unspecified), the AC50 was 3.98 µM [falling, full curve].
For `COc1ccc(-c2nc3ccccc3s2)cc1NC(=O)COc1ccccc1C`, the AC50 was 1.26 µM [rising, full curve].
For `Cc1nnc(NC(=O)CSc2nc3c([nH]c4ccccc43)c(=O)n2-c2ccccc2)s1`, the AC50 was 0.316 µM [rising, full curve].
With `CC(C)Oc1ccc(C(=O)Nc2ccc3c(c2)CCCN3C(=O)c2cccs2)cc1` the AC50 was 12.6 µM [falling, partial curve].
For `COc1ccc(Cn2c(CNC(=O)c3ccc(N(C)C)cc3)nc3cccnc32)cc1`, the AC50 was 1 µM [rising, full curve].
For `O=C(Cn1cc(SCc2ccc(C(F)(F)F)cc2)c2ccccc21)N1CCCCCC1`, the AC50 was 5.01 µM [falling, partial curve].
In the case of `CC(C)(C)OC(=O)N1CCC(c2c(C(=O)NC3CCCCC3)cnn2-c2cccc(F)c2)CC1`, the AC50 is reported as 15.8 µM [falling, single point].
With `O=C1C(Cl)=C(Nc2ccc(S(=O)(=O)Nc3ccccn3)cc2)C(=O)c2ccccc21` the AC50 was 6.31 µM [rising, partial curve] [measured here: IkB-luc green channel].
For `Cc1cccc(C(=O)Nc2cccc(C(=O)OCc3cc(=O)n4nc(C(C)C)sc4n3)c2)c1`, the AC50 was 12.6 µM [falling, partial curve].
For `CC(NC(=O)c1ccc(NC(=O)c2nsc3ccccc23)cc1)c1ccccc1` (stereo unspecified), the AC50 was 0.0794 µM [falling, full curve].
For `O=C(Nc1ccccc1)N(Cc1ccc2c(c1)OCO2)Cc1nc2ccccc2c(=O)[nH]1`, the AC50 was 12.6 µM [falling, partial curve].
